PubChem BioAssay AID652259 – Drosophila RNAi Screening Center | 2013

Aim: 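Genome-wide hunt for genes that control Wingless pathway activity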 (primary screen)
Cell system: Drosophila clone 8 imaginal disc epithelial cells
Reagents: long dsRNA against Drosophila genes
Conditions: pathway stimulated by co-transfected Wingless expression plasmid
Read-out: 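Dual luciferase reads per well after Wingless plasmid stimulation: reporter firefly light and Renilla control light; activity is firefly divided by Renilla, a ratio not deposited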
Scale: firefly reporter light: higher = more Wg reporter light, before normalisation; Renilla control light: higher = more transfected or surviving cells
Active means: 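a knock-down is a candidate when at least two out of four statistical tests show it departing from its plate mean; one test alone signals a weak candidate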
Calls: active = candidate regulator (raises or lowers reporter); inactive = not a candidate
In all, the deposit lists about 22,000 reagents; below is an unselected part of those with a known target gene and a result. Of all reagents, 233 (1.1%) got an active call. 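Light values are raw, unnormalised plate reads; the ratio scores behind the reporter calls were not deposited.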 Reagents against one gene are numbered here. A plus sign joins genes that one reagent is predicted to hit. Not stated in the record: the amount of reagent, the time to read-out, the dose of the treatment.

target	reagent no.	firefly reporter light, replicate 1	firefly reporter light, replicate 2	Renilla control light, replicate 1	Renilla control light, replicate 2	call
Ns2	1	19313		5904		inactive
Mcm6	1	1658	6256	584	1747	inactive
FRG1	1	16507		6469		inactive
modSP	1	24448		6740		inactive
modSP	2	10235		2659		inactive
modSP	3	4.85e5	4.73e5	3.66e5	2.23e5	inactive
RpL4	1	2437	6810	656	1089	inactive
mim	1	1834	6124	208	930	inactive
CG14013	1	2022	8800	587	2020	inactive
CG1602	1	4404	5798	853	2272	inactive
CG14929 + CG14930	1	2708	6934	691	3686	inactive
Ugt303B2	1	26137		23578		inactive
Ugt303B2	2	5.35e5	4.88e5	2.33e5	2.46e5	inactive
Efa6	1	2896		1139		inactive
Efa6	2	21985		7632		inactive
Efa6	3	26216		18220		inactive
CG1532	1	2369	8089	1028	2801	inactive
jim	1	8749		2864		inactive
CG13168	1	3945		1680		inactive
robl62A	1	4312		2608		inactive
CG42369	1	2749	4215	917	688	inactive
lncRNA:CR43485	1	2875		1142		inactive
Osi10b	1	7665		1457		inactive
Ag5r	1	2642	7456	1040	2800	inactive
CG32655	1	1898		1008		inactive
mtTFB2	1	12856		2736		inactive
CG10383	1	12856		4566		inactive
Erk7	1	23737		10888		inactive
Erk7	2	22690		9881		inactive
Erk7	3	4.86e5	4.89e5	1.54e5	1.65e5	inactive
Pgam5	1	3112	5744	1222	2291	inactive
CG13005	1	22352		8268		inactive
Hsp68	1	18534		16657		inactive
Kr-h2	1	2315	6720	577	2424	inactive
Pgant6	1	14454		5379		inactive
CG32095	1	4.27e5	3.85e5	1.50e5	1.04e5	inactive
CG5404	1	12261	8.77e5	4880	4.79e5	inactive
mRpL15	1	5084		2048		inactive
HIP + HIP-R	1	3812	9516	1424	3385	inactive
CG13407	1	35280		5096		inactive
CG34241	1	3041		1830		inactive
L (retired record)	1	12905		2048		inactive
L (retired record)	2	10746		1642		inactive
eRF1	1	2176		1600		inactive
euc	1	17589		3954		inactive
CG42685	1	5515	13693	2386	5536	inactive
Cyp318a1	1	21850		10380		inactive
Men-b	1	6848		1906		inactive
CG11454	1	5540		2656		inactive
CG6661 + asRNA:CR42871	1	5719		2896		inactive
Nup358	1	5141	9555	1418	2433	inactive
CG32198	1	3301		1132		inactive
CG42266	1	3.77e5	4.20e5	1.45e5	1.63e5	inactive
CG42266	2	3.07e5	4.10e5	1.49e5	1.89e5	inactive
Ilp4	1	7115		2881		inactive
CG2540	1	2922	9077	1341	3056	inactive
CG17919	1	8352		2818		inactive
dsx-c73A	1	4128		1329		inactive
dsx-c73A	2	7924		2640		inactive
dsx-c73A	3	9354		3284		inactive
CG1907	1	3005	9789	1696	3319	inactive
CG4286	1	2482	8503	512	2448	inactive
Syp	1	3569		1688		inactive
Syp	2	3881	10539	1664	2646	inactive
Ntf-2r	1	3287	7636	632	1620	inactive
CG14342	1	2595	7036	896	2649	inactive
CG43260 (retired record)	1	4240		1572		inactive
Fkbp14	1	18100		4981		inactive
alpha-Man-IIb	1	2317	4808	1104	1065	inactive
Mdr65	1	1216	4668	773	2461	inactive
Nplp4	1	3591	5940	1744	3305	inactive
CG7457	1	1146	7884	1010	3768	inactive
kin17	1	17904		3793		inactive

11 entries from above, sorted by “Renilla control light, replicate 1”, low to high.
target	reagent no.	firefly reporter light, replicate 1	firefly reporter light, replicate 2	Renilla control light, replicate 1	Renilla control light, replicate 2	call
Kr-h2	1	2315	6720	577	2424	inactive
HIP + HIP-R	1	3812	9516	1424	3385	inactive
CG34241	1	3041		1830		inactive
mRpL15	1	5084		2048		inactive
L (retired record)	1	12905		2048		inactive
CG5404	1	12261	8.77e5	4880	4.79e5	inactive
CG13407	1	35280		5096		inactive
Pgant6	1	14454		5379		inactive
CG13005	1	22352		8268		inactive
Hsp68	1	18534		16657		inactive
CG32095	1	4.27e5	3.85e5	1.50e5	1.04e5	inactive
